{"source": "PubChem BioAssay AID1224830 (NIAID, 2016)", "assay": "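Regulators of TLR4 signalling towards TNF-alpha in macrophage-like cells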 (primary screen)", "cells": "human THP-1 monocytic leukaemia cells, TNF dual-luciferase reporter clone, PMA-differentiated to macrophage-like cells", "reagent": "siRNA pool against human genes, 50 nM", "time to read-out": "LPS for 4 h, given about 3 days after siRNA transfection", "challenge": "bacterial LPS (TLR4 ligand), 10 ng/ml", "measured": "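Ratio of firefly to renilla light, scaled to the plate median and expressed as a robust z-score per replicate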", "direction": "TNF reporter robust z-score: higher = stronger TNF reporter response to LPS", "rule for the call": "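a well is active when its z-score exceeds 2.8 or falls below -1.5; control wells carry no call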", "note": "This is a random part of about 18,000 reagents. In the full data, about 2,900 (16%) are marked active. 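Calls are made per well; low scores hint the gene aids the LPS response, high scores that it dampens it.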 Unmarked entries are inactive. Repeated entries: four replicate wells of each siRNA pool. Reagent sequences are not shown."}
{"Gene": "MAP4K5", "TNF reporter robust z-score": -0.32}
{"Gene": "MAP4K5", "TNF reporter robust z-score": 0.58}
{"Gene": "MAP4K5", "TNF reporter robust z-score": -0.9}
{"Gene": "MAP4K5", "TNF reporter robust z-score": 0.31}
{"Gene": "FNBP4", "TNF reporter robust z-score": -1.5}
{"Gene": "FNBP4", "TNF reporter robust z-score": -1.3}
{"Gene": "FNBP4", "TNF reporter robust z-score": -1.21}
{"Gene": "FNBP4", "TNF reporter robust z-score": -1.48}
{"Gene": "ACSM4", "TNF reporter robust z-score": -0.79}
{"Gene": "ACSM4", "TNF reporter robust z-score": -0.67}
{"Gene": "ACSM4", "TNF reporter robust z-score": -0.41}
{"Gene": "ACSM4", "TNF reporter robust z-score": -0.27}
{"Gene": "FBXW11", "TNF reporter robust z-score": 0.01}
{"Gene": "FBXW11", "TNF reporter robust z-score": 1.46}
{"Gene": "FBXW11", "TNF reporter robust z-score": 0.06}
{"Gene": "FBXW11", "TNF reporter robust z-score": -0.62}
{"Gene": "TNFRSF10A", "TNF reporter robust z-score": -0.2}
{"Gene": "TNFRSF10A", "TNF reporter robust z-score": -0.07}
{"Gene": "TNFRSF10A", "TNF reporter robust z-score": -1.36}
{"Gene": "TNFRSF10A", "TNF reporter robust z-score": -0.55}

6 of these entries, set out differently.
| Gene | TNF reporter robust z-score |
| --- | --- |
| MAP4K5 | -0.9 |
| MAP4K5 | 0.31 |
| FNBP4 | -1.5 |
| FNBP4 | -1.3 |
| FNBP4 | -1.21 |
| FNBP4 | -1.48 |

The results go on.
{"Gene": "RBMY1B", "TNF reporter robust z-score": 0.56}
{"Gene": "RBMY1B", "TNF reporter robust z-score": 1.95}
{"Gene": "RBMY1B", "TNF reporter robust z-score": 0.45}
{"Gene": "RBMY1B", "TNF reporter robust z-score": 1.49}
{"Gene": "CSF1", "TNF reporter robust z-score": -0.81}
{"Gene": "CSF1", "TNF reporter robust z-score": 0.07}
{"Gene": "CSF1", "TNF reporter robust z-score": -0.72}
{"Gene": "CSF1", "TNF reporter robust z-score": -0.51}
{"Gene": "SLC20A1", "TNF reporter robust z-score": 0.62}
{"Gene": "SLC20A1", "TNF reporter robust z-score": 1.23}
{"Gene": "SLC20A1", "TNF reporter robust z-score": 0.34}
{"Gene": "SLC20A1", "TNF reporter robust z-score": 2.58}
{"Gene": "RND1", "TNF reporter robust z-score": 1.05}
{"Gene": "RND1", "TNF reporter robust z-score": 2.69}
{"Gene": "RND1", "TNF reporter robust z-score": 1.65}
{"Gene": "RND1", "TNF reporter robust z-score": 2.34}
{"Gene": "VPS25", "TNF reporter robust z-score": 2.43}
{"Gene": "VPS25", "TNF reporter robust z-score": "4.78 (active)"}
{"Gene": "VPS25", "TNF reporter robust z-score": "2.8 (active)"}
{"Gene": "VPS25", "TNF reporter robust z-score": "3.24 (active)"}
{"Gene": "DDX18", "TNF reporter robust z-score": 0.64}
{"Gene": "DDX18", "TNF reporter robust z-score": 0.48}
{"Gene": "DDX18", "TNF reporter robust z-score": -0.85}
{"Gene": "DDX18", "TNF reporter robust z-score": 1.51}
{"Gene": "FCRLA", "TNF reporter robust z-score": 1.42}
{"Gene": "FCRLA", "TNF reporter robust z-score": 1.05}
{"Gene": "FCRLA", "TNF reporter robust z-score": 0.53}
{"Gene": "FCRLA", "TNF reporter robust z-score": 1.19}
